The other results are listed elsewhere or left out.

By UniProt entry, the sequences of proteins in these tests, tags left out.
UniProt Q0JBA9, entry or part of it: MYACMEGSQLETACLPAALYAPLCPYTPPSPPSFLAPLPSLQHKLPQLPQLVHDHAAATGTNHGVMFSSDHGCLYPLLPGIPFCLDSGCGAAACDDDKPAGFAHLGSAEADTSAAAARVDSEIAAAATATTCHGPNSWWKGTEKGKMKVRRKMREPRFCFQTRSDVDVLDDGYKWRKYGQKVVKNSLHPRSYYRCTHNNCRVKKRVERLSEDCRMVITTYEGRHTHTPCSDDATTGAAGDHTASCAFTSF

This experiment has as its target OsWRKY34 (Oryza sativa, UniProt Q0JBA9 1-250). The experiment in a line: protein-binding microarray (RPBM); PBS, 2% BSA, 51.3 ng/ul salmon testes DNA, 50 uM zinc acetate, 200 nM TF, 25 C, 1 h; high values mean tight binding. The settings on record: protein: recombinant; tags: N-terminal polyhistidine and DsRed monomer fusion (pET32a); label: CyDye5-dUTP incorporated in the synthesized complementary strand; 3' TTTTT single-stranded linker to array surface; dsDNA, one strand shown. In outline:
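The binding signal is fluorescence intensity per array feature (arbitrary units). Readings came from an Axon 4000B scanner after a washed, 2% BSA-blocked, double-stranded custom Agilent array had been incubated for 1 h at 25 °C with 200 nM protein and 50 µM zinc acetate. The protein was a Ni–NTA-purified transcription factor fused N-terminally to polyhistidine and DsRed, expressed in E. coli BL21-CodonPlus.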
Take “ACGACGACGACGACGACGCAACCCCGCGGCGCGCGCCGGCCGGAGTCACCTAGTGCAG”: the binding signal is 8430 fluorescence intensity (a.u.).

On to “AGAGATCACTAATTATTTACGCATCAATTCGTCATTTCTTCGGAGTCACCTAGTGCAG”, for which the binding signal was 9580 fluorescence intensity (a.u.).

As for “TTGCTTGCCGATCATCCAATGCCTTGTCGGATCTTCCTCTCGGAGTCACCTAGTGCAG”, the binding signal was 12100 fluorescence intensity (a.u.).

Consider “CTTTGGGTTCTTGTTTGTCGCGTTGAATGTGGTTCACAACCGGAGTCACCTAGTGCAG”, for which the binding signal was 10100 fluorescence intensity (a.u.).

Consider “GGGTCTATTTTTATAATTTTTTTGGCCGATAGATTATTTCCGGAGTCACCTAGTGCAG”, for which the binding signal is 10800 fluorescence intensity (a.u.).

As to “GCACGCACTCCCACACCGCACACTCGCCAGTTAGCCCTTACGGAGTCACCTAGTGCAG”, the binding signal is 13900 fluorescence intensity (a.u.).

“GTGGGAGATCATAATGCTGGCGACGTGGTGGTTCTTGACACGGAGTCACCTAGTGCAG”: the binding signal was 8070 fluorescence intensity (a.u.).

With “TTTTCTTTTTCAATGTATGATTCTGTTGACTTTTCAGATACGGAGTCACCTAGTGCAG”, the binding signal is 11600 fluorescence intensity (a.u.).

With “CTTCGTCTCTCTCGTCTCGGCTTCGCTACGTTTTTTTTTTCGGAGTCACCTAGTGCAG”, the binding signal is 13300 fluorescence intensity (a.u.).

Consider “ACCTTCTTACCCACTCCACCCACTGACAACGTTGGCCACCCGGAGTCACCTAGTGCAG”, for which the binding signal is 9360 fluorescence intensity (a.u.).

Regarding “TGTTTTGGCTTTGGTCCCTTGCTTTTCTTTGGAGGTTGGACGGAGTCACCTAGTGCAG”, the binding signal was 10400 fluorescence intensity (a.u.).

For the sequence “CATTCGCTCTAGCCTTCCTCATCGTTGACAGTGCGTGGCACGGAGTCACCTAGTGCAG”, the binding signal is 9600 fluorescence intensity (a.u.).

In the case of “GTCCAAGCCCAATCCACCACCCCGCAGCTCAACCTGGCTCCGGAGTCACCTAGTGCAG”, the binding signal was 8040 fluorescence intensity (a.u.).

With “GTACTCGTGTCTTCATCAGTTATTCCACTCAAAACCGCATCGGAGTCACCTAGTGCAG”, the binding signal is 8630 fluorescence intensity (a.u.).

Regarding “CTTTGTGTTGCTTCTTCTCTTGCAAATTTTTACGTGCATCCGGAGTCACCTAGTGCAG”, the binding signal is 8840 fluorescence intensity (a.u.).

As to “CCAACCACCAAATCATCCCACACAAACACCACAAGCTCATCGGAGTCACCTAGTGCAG”, the binding signal is 8720 fluorescence intensity (a.u.).

As to “ATTTAGCGTTTATTTTCCGTCAAAATTTTTATATTACGCACGGAGTCACCTAGTGCAG”, the binding signal is 10600 fluorescence intensity (a.u.).

As to “CTCATTTGCTCTCCGTCTGCCTGCCATGCGCCACGCCGCCCGGAGTCACCTAGTGCAG”, the binding signal is 9250 fluorescence intensity (a.u.).

As for “ATTTCGTGCGGCTTGTCACATCCTGCTTGTTTCATGTACCCGGAGTCACCTAGTGCAG”, the binding signal is 9580 fluorescence intensity (a.u.).

Take “ACTTTCTAGCATTGCCTACATTCATATATATATATATATACGGAGTCACCTAGTGCAG”: the binding signal was 10900 fluorescence intensity (a.u.).

In the case of “CGCGGCGTCTACGGTTTCTTTCTCTTTCTCTCTCTTTTTTCGGAGTCACCTAGTGCAG”, the binding signal is 10200 fluorescence intensity (a.u.).

Consider “TTTGTTGTCTCATTTATTTTTCTACGGGTTATCATCCGAACGGAGTCACCTAGTGCAG”, for which the binding signal was 8220 fluorescence intensity (a.u.).

Turning to “AGGGTTGTGATTGGTTGGGAAGAGAATGTTGGTAGATAAGCGGAGTCACCTAGTGCAG”, the binding signal is 9400 fluorescence intensity (a.u.).

Consider “TGTGTCATATCCAGTTCTAGATTCGTTTTTTTCGGGACGGCGGAGTCACCTAGTGCAG”, for which the binding signal is 8270 fluorescence intensity (a.u.).

As for “TCCAACATCAACAGCCAGCTTACGGTAACTTCTCTCACGGCGGAGTCACCTAGTGCAG”, the binding signal is 9150 fluorescence intensity (a.u.).

Consider “TAAATCTCCAGCCAGGAATTCCCGTTGCTATCTCTAGTCTCGGAGTCACCTAGTGCAG”, for which the binding signal is 10600 fluorescence intensity (a.u.).

“GCAACACCTTGACTTCTCGCATTTACAAACTATATACATACGGAGTCACCTAGTGCAG”: the binding signal is 9190 fluorescence intensity (a.u.).

Take “CTCTCATCCGATTCCTGCGTTTTTCCTGTGGTTCAATCATCGGAGTCACCTAGTGCAG”: the binding signal was 17900 fluorescence intensity (a.u.).

On to “AATTGGTTTCTGCTTCTCGCGTTGACAATTTCACTATGCTCGGAGTCACCTAGTGCAG”, for which the binding signal is 11100 fluorescence intensity (a.u.).

In the case of “CATTTTTCAGGCATGTGATGCTTCTTGGGGAGGATTTCATCGGAGTCACCTAGTGCAG”, the binding signal was 8030 fluorescence intensity (a.u.).

Take “TCATATGGGTTGGTGTATGTGTATTGTGAGTCTGTGTTTGCGGAGTCACCTAGTGCAG”: the binding signal is 8300 fluorescence intensity (a.u.).

Regarding “ATATTTCTCTCTTCACGCATCCGTGTCTTCATCCTTGATCCGGAGTCACCTAGTGCAG”, the binding signal is 8720 fluorescence intensity (a.u.).

“CTTCGGTTATACTTTTGCTTTGGAATTGTGTTCCTTTGCTCGGAGTCACCTAGTGCAG”: the binding signal is 9420 fluorescence intensity (a.u.).

As for “TTACTCCTGGACCAGCATTGCTACAACTATCATTTTCTCCCGGAGTCACCTAGTGCAG”, the binding signal is 9840 fluorescence intensity (a.u.).

For the sequence “CTGCTCCGGCACTCTCTCCATCTGCGCCGCCGTTTGCCTCCGGAGTCACCTAGTGCAG”, the binding signal is 10400 fluorescence intensity (a.u.).

For “CACTGTCACCCAATCCACTCAGCTGCTCTTGCTCTTCCTGCGGAGTCACCTAGTGCAG”, the binding signal is 10000 fluorescence intensity (a.u.).

For the sequence “ATCGCTCGCTCGCGCGCCACACTCCTCGAACCACCACCACCGGAGTCACCTAGTGCAG”, the binding signal was 9620 fluorescence intensity (a.u.).

With “GTATGTCCTCTGTAATAAAATCTCGCGTGCCATAACTATTCGGAGTCACCTAGTGCAG”, the binding signal was 10000 fluorescence intensity (a.u.).

Take “TCCACTCTCTGCGCGCTTTTTTCTGACAAAACTGATGAGACGGAGTCACCTAGTGCAG”: the binding signal is 8090 fluorescence intensity (a.u.).

In the case of “CGCCGACTGTCGCCTCGACCCACCGGCTCTCCGTCCGCTTCGGAGTCACCTAGTGCAG”, the binding signal was 9600 fluorescence intensity (a.u.).

For “TCGGTCTCCACGCGCTTTCACCTCCGTATTTTACTCGCGCCGGAGTCACCTAGTGCAG”, the binding signal was 9250 fluorescence intensity (a.u.).

Regarding “TATGTTCATTTCCTTATTTGCCTCTCGTCATGTCTCTTGACGGAGTCACCTAGTGCAG”, the binding signal was 10200 fluorescence intensity (a.u.).
